Assay results reported in publication PMC10680230.
These are yes or no findings as the source states them, for the method shown. Binding seen in cells or lysates may run through a third protein. Some results given as binding are weak or reduced against the parent protein; the word gives no strength.

Protein sequences, listed by entry. Tags and fused reporters are not part of them.
UniProt P62258: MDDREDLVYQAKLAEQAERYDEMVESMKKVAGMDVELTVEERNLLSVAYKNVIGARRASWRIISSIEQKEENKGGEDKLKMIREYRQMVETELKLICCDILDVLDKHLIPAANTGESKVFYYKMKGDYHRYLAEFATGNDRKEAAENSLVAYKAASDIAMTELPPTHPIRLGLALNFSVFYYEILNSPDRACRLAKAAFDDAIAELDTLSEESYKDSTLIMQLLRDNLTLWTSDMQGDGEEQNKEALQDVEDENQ

Target: YWHAE (human (endogenous in H929)) (UniProt P62258)
Test: co-IP; endogenous co-immunoprecipitation from H929 cell lysate (IP lysis buffer), Protein A/G agarose beads and anti-YWHAE at 4 °C overnight, immunoblot with anti-TRIP13; anti-IgG as non-specific control; also the untreated control of Fig. 5h

binding: binds
B1: Thyroid hormone receptor-interacting protein 13 (TRIP13) (protein, UniProt Q15645 1-432)
chain: MDEAVGDLKQALPCVAESPTVHVEVHQRGSSTAKKEDINLSVRKLLNRHNIVFGDYTWTEFDEPFLTRNVQSVSIIDTELKVKDSQPIDLSACTVALHIFQLNEDGPSSENLEEETENIIAANHWVLPAAEFHGLWDSLVYDVEVKSHLLDYVMTTLLFSDKNVNSNLITWNRVVLLHGPPGTGKTSLCKALAQKLTIRLSSRYRYGQLIEINSHSLFSKWFSESGKLVTKMFQKIQDLIDDKDALVFVLIDEVESLTAARNACRAGTEPSDAIRVVNAVLTQIDQIKRHSNVVILTTSNITEKIDVAFVDRADIKQYIGPPSAAAIFKIYLSCLEELMKCQIIYPRQQLLTLRELEMIGFIENNVSKLSLLLNDISRKSEGLSGRVLRKLPFLAHALYVQAPTVTIEGFLQALSLAVDKQFEERKKLAAYI
